From US20070149487A1, “Antiviral Compositions and Methods” (priority 2005, published 2007)
Some entries share one result that the patent states for a list of compounds. At least one compound was matched to its structure with a doubt left. Some ranges recur; such a range may be that of the whole group of compounds.

Test system: human SARS-CoV Toronto-2 strain
Assay type: cell-based

Structure (SMILES)	Average Inhibition (%) at 32 μM
CC(=O)Nc1ccc2c(c1)[C@H]1C=CC[C@@H]1[C@H](c1ccc([N+](=O)[O-])cc1)N2 [CS08]	13-17%
O=C(O)c1ccc(C2Nc3c(Cl)cc(Cl)c(Cl)c3C3C=CCC32)cc1 (stereo not shown) [CS09]	13-17%
N=C1C(=Cc2ccc3c(c2)OCO3)C(=O)C=C2SC(C(F)(F)F)=NN12 [CS10]	13-17%
Cc1ccc([N+](=O)[O-])cc1N1C(=O)c2ccc(C(=O)O)cc2C1=O [CS12]	13-17%
